PubChem BioAssay AID504764 | Drosophila RNAi Screening Center, 2011
The screen tested about 22,000 reagents; below is a random part of those that have a named target and a result. Of all reagents, 403 (1.9%) were called active. 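Unnormalised raw counts per well; ratio z-scores behind the hit calls and whether each hit raises or lowers signal are not deposited.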 A plus sign joins genes that one reagent is predicted to hit. Not stated in the record: the amount of reagent.

- Assay: 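Knock-downs that raise or lower a Notch target reporter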 (primary screen)
- Cells: Drosophila Kc167 cells
- Knock-down reagent: long dsRNA against Drosophila genes
- Time to read-out: about 5 days (4 days dsRNA, then 24 h after transfection)
- Treatment: transfection of constitutively active membrane-tethered Notch lacking the extracellular domain, read 24 h later
- Measured: 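Light from a Notch-responsive E(spl)m3 luciferase reporter under active Notch, with control-promoter and no-Notch reporter wells to normalise; raw counts from paired wells a and b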
- Direction: induced reporter light, run 1, well a and induced reporter light, run 1, well b: higher = more light from the Notch target reporter with active Notch; control promoter light, run 1, well a and control promoter light, run 1, well b: higher = more light from the viral control promoter (cell number, transfection, viability); uninduced reporter light, run 1, well a: higher = more light from the Notch target reporter without active Notch
- Call rule: 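Wells with low control signal or poorly matching duplicates excluded; duplicates averaged; per source plate, z beyond ±2 for induced/control log2 ratio or beyond ±1.8 for induced/uninduced marks a hit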
- Meaning of the calls: active = modifier hit (raised or lowered Notch signal); inactive = not a hit

gene | amplicon | induced reporter light, run 1, well a | induced reporter light, run 1, well b | control promoter light, run 1, well a | control promoter light, run 1, well b | uninduced reporter light, run 1, well a | Outcome
CG7512 | DRSC10863 | 2.50e5 | 1.90e5 | 2.71e5 | 2.03e5 | 11480 | inactive
otk | DRSC07658 | 1.07e5 | 1.27e5 | 1.30e5 | 1.26e5 | 10405 | inactive
in | DRSC11888 | 1.51e5 | 81990 | 1.06e5 | 1.10e5 | 7005 | inactive
trr | DRSC18845 | 56425 | 44325 | 51925 | 48040 | 8405 | inactive
slv | DRSC07685 | 2.21e5 | 2.09e5 | 2.55e5 | 2.50e5 | 17380 | inactive
Ir10a | DRSC18891 | 68880 | 74495 | 84340 | 64120 | 5195 | inactive
Ir10a | DRSC19478 | 87350 | 87550 | 79915 | 87955 | 6890 | inactive
Ir10a | DRSC19479 | 1.17e5 | 1.22e5 | 1.93e5 | 3.08e5 | 9770 | inactive
CG14182 | DRSC10181 | 1.23e5 | 1.02e5 | 1.11e5 | 1.12e5 | 9670 | inactive
CG32052 | DRSC10966 | 1.74e5 | 1.26e5 | 1.65e5 | 1.58e5 | 10580 | inactive
ato | DRSC16904 | 75985 | 1.02e5 | 81995 | 73175 | 7425 | inactive
Atg101 | DRSC20020 | 73450 | 99235 | 88360 | 99205 | 8470 | inactive
CG33128 | DRSC00294 | 1.43e5 | 94335 | 99025 | 69270 | 9955 | inactive
tj | DRSC02011 | 31455 | 28775 | 42800 | 74705 | 2430 | inactive
CG9855 | DRSC12344 | 1.24e5 | 90310 | 45600 | 80450 | 7438 | inactive
b | DRSC03487 | 1.82e5 | 1.94e5 | 1.85e5 | 1.86e5 | 15765 | inactive
CG32793 | DRSC18145 | 84755 | 80775 | 1.25e5 | 1.18e5 | 5510 | inactive
CG32793 | DRSC18194 | 96045 | 1.08e5 | 1.34e5 | 1.63e5 | 7115 | inactive
peng | DRSC20583 | 47870 | 51470 | 52405 | 79485 | 9155 | inactive
Rcd1 | DRSC07116 | 1.05e5 | 1.07e5 | 1.38e5 | 1.24e5 | 12935 | inactive
Hip1 | DRSC09812 | 82315 | 1.09e5 | 76140 | 38965 | 9160 | inactive
CG17633 | DRSC02631 | 1.28e5 | 1.61e5 | 71960 | 1.02e5 | 19120 | inactive
CG11334 | DRSC14066 | 74025 | 93130 | 1.08e5 | 1.06e5 | 6875 | inactive
CG11334 | DRSC14302 | 1.70e5 | 1.54e5 | 2.40e5 | 2.52e5 | 10105 | inactive
Hex-t1 | DRSC16701 | 1.52e5 | 1.59e5 | 1.92e5 | 1.92e5 | 11755 | inactive

3 entries already listed, arranged by “control promoter light, run 1, well a”, ascending.
gene | amplicon | induced reporter light, run 1, well a | induced reporter light, run 1, well b | control promoter light, run 1, well a | control promoter light, run 1, well b | uninduced reporter light, run 1, well a | Outcome
tj | DRSC02011 | 31455 | 28775 | 42800 | 74705 | 2430 | inactive
Atg101 | DRSC20020 | 73450 | 99235 | 88360 | 99205 | 8470 | inactive
CG33128 | DRSC00294 | 1.43e5 | 94335 | 99025 | 69270 | 9955 | inactive

More reagents follow:
gene | amplicon | induced reporter light, run 1, well a | induced reporter light, run 1, well b | control promoter light, run 1, well a | control promoter light, run 1, well b | uninduced reporter light, run 1, well a | Outcome
Jheh3 | DRSC06533 | 93080 | 87430 | 1.60e5 | 1.65e5 | 8360 | inactive
endos | DRSC10658 | 1.46e5 | 1.37e5 | 1.07e5 | 1.20e5 | 11245 | inactive
cno | DRSC12054 | 1.32e5 | 1.93e5 | 1.77e5 | 1.61e5 | 14870 | inactive
cno | DRSC12374 | 2515 | 2605 | 3830 | 3880 | 3080 | inactive
Polr2G | DRSC16068 | 52920 | 45975 | 36155 | 32475 | 3610 | inactive
CG43867 | DRSC17582 | 66465 | 68425 | 74535 | 81575 | 6135 | inactive
CG43867 | DRSC17836 | 1.46e5 | 1.21e5 | 2.14e5 | 2.27e5 | 8820 | inactive
CG43867 | DRSC17837 | 1.19e5 | 1.43e5 | 3.09e5 | 3.53e5 | 11090 | active
CG43867 | DRSC17943 | 1.33e5 | 1.37e5 | 2.42e5 | 2.15e5 | 8330 | inactive
Uqcc1 + CG9948 | DRSC09690 | 2.16e5 | 2.13e5 | 2.78e5 | 3.02e5 | 12920 | inactive
Oatp58Dc | DRSC04363 | 1.39e5 | 1.70e5 | 1.32e5 | 1.32e5 | 9710 | inactive
CG15594 | DRSC12280 | 1.13e5 | 95600 | 1.08e5 | 91925 | 8710 | inactive
CG7945 | DRSC10934 | 1.68e5 | 1.81e5 | 73740 | 92105 | 9415 | inactive
ppan | DRSC17030 | 1.53e5 | 1.52e5 | 2.17e5 | 1.95e5 | 14170 | inactive
Lrrk | DRSC15816 | 1.61e5 | 1.44e5 | 1.93e5 | 1.97e5 | 11345 | inactive
CG2186 | DRSC19838 | 2.36e5 | 1.91e5 | 2.32e5 | 1.95e5 | 12050 | inactive
mats | DRSC13562 | 98640 | 91045 | 1.34e5 | 1.16e5 | 12830 | inactive
mats | DRSC14702 | 1.30e5 | 1.48e5 | 1.46e5 | 1.40e5 | 11845 | inactive
Marc | DRSC06614 | 1.72e5 | 1.50e5 | 2.16e5 | 2.18e5 | 14635 | inactive
Pal1 + Pdrg1 | DRSC06587 | 3.22e5 | 2.86e5 | 3.05e5 | 2.56e5 | 25575 | active
Pkn | DRSC06809 | 2.07e5 | 2.83e5 | 2.05e5 | 1.69e5 | 18825 | inactive
Pkn | DRSC06810 | 1.75e5 | 1.79e5 | 1.99e5 | 1.80e5 | 15220 | inactive
pll | DRSC17026 | 2.06e5 | 2.01e5 | 2.35e5 | 2.15e5 | 12195 | inactive
CG33500 | DRSC09115 | 1.53e5 | 1.53e5 | 1.15e5 | 1.06e5 | 16135 | inactive
Oseg2 | DRSC08343 | 1.02e5 | 93310 | 1.82e5 | 1.46e5 | 7160 | inactive
